Values from PubChem BioAssay AID1053208 (Peter MacCallum Cancer Centre, 2014)
Aim: 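Find knock-downs that sensitise mouse osteosarcoma cells to doxorubicin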 (primary screen). Cells: mouse osteosarcoma cells, early-passage culture from an engineered mouse model of fibroblastic bone tumour. Knock-down reagent: siRNA pool against mouse genes, 40 nM. Time to read-out: about 120 h (48 h before drug, then 72 h with drug). Conditions: doxorubicin 100 nM for 72 h, roughly 30-40% inhibitory dose. Measurement: 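Luminescent ATP signal taken as viability with or without 100 nM doxorubicin for 72 h; mean of two wells set against non-targeting siRNA and turned into robust z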. Scale: viability z-score with doxorubicin and doxorubicin viability vs non-targeting: higher = more viable cells under doxorubicin; viability z-score without drug: higher = more viable cells with knock-down alone; z-score of drug to no-drug ratio: higher = less drug sensitisation by knock-down. Call rule: 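Called active if knock-down leaves viability unchanged without drug (z within -2 to 2) but lowers it with doxorubicin (z at or under -2)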.
The whole screen tested about 17,000 reagents; shown is a random part of them. 788 of all reagents (4.7%) count as active. 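Calls rest on z-score classes alone; an extra cut-off of viability at most 70% of control was not applied to them.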

| gene knocked down | combined z-score class | viability z-score with doxorubicin | viability z-score without drug | z-score of drug to no-drug ratio | doxorubicin viability vs non-targeting | Outcome |
| --- | --- | --- | --- | --- | --- | --- |
| Oas1b | no change with or without drug | -0.11 | -0.67 | 0.45 | 0.93 | inactive |
| Ubp1 | no change with or without drug | 0 | -0.84 | 0.67 | 0.94 | inactive |
| Or1b1 | no change with or without drug | -1.35 | -1.52 | -0.34 | 0.82 | inactive |
| Atp23 | no change with or without drug | -0.45 | -0.17 | -0.22 | 0.9 | inactive |
| Cep20 | no change with or without drug | 0.11 | 0.17 | 0.11 | 0.95 | inactive |
| Haghl | no change with or without drug | 0.9 | -0.17 | 1.24 | 1.02 | inactive |
| Vmn1r30 | no change with or without drug | -0.67 | -1.01 | 0.11 | 0.88 | inactive |
| Or6k4 | no change with or without drug | 0.34 | 0.67 | 0 | 0.97 | inactive |
| Atp6v0a4 | no change with or without drug | -0.9 | 0.51 | -1.12 | 0.86 | inactive |
| Sh3bp4 | no change with or without drug | -0.9 | -1.85 | 0.45 | 0.86 | inactive |
| Arl5c | no change with or without drug | 0.9 | 0.17 | 0.9 | 1.02 | inactive |
| Il11ra1 | no change with or without drug | 0.45 | 0.51 | 0.22 | 0.98 | inactive |
| Olfml1 | no change with or without drug | 0 | -0.84 | 0.67 | 0.94 | inactive |
| Aldh1b1 | no change with or without drug | 0 | 1.01 | -0.56 | 0.94 | inactive |
| H1f3 | no change with or without drug | -1.24 | 0.51 | -1.46 | 0.83 | inactive |
| Ganab | no change with or without drug | 0.45 | 0.17 | 0.45 | 0.98 | inactive |
| Gpnmb | no change with or without drug | 0.22 | 0 | 0.34 | 0.96 | inactive |
| Fcgrt | no change with or without drug | -0.22 | 0.67 | -0.56 | 0.92 | inactive |
| Supv3l1 | no change with or without drug | -0.9 | -0.51 | -0.56 | 0.86 | inactive |
| Meltf | low cell count with doxorubicin only | -4.5 | -1.85 | -3.82 | 0.54 | active |
| Degs1 | no change with or without drug | 1.01 | -1.18 | 2.14 | 1.03 | inactive |
| Proz | no change with or without drug | 0.67 | -1.01 | 1.57 | 1 | inactive |
| Aph1a | high cell count without drug only | -1.24 | 2.02 | -2.25 | 0.83 | inactive |
| 5730596B20Rik | no change with or without drug | -0.79 | 0.67 | -1.12 | 0.87 | inactive |
| Atp5mk | no change with or without drug | -1.57 | -0.17 | -1.46 | 0.8 | inactive |
| Kcnj5 | low cell count with doxorubicin only | -2.02 | -1.18 | -1.35 | 0.76 | active |
| Egln2 | no change with or without drug | -1.01 | 0.34 | -1.12 | 0.85 | inactive |
| Or4c109 | no change with or without drug | 0.34 | 1.18 | -0.34 | 0.97 | inactive |
| Tmem266 | no change with or without drug | 0.34 | -0.51 | 0.79 | 0.97 | inactive |
| Nlrc4 | no change with or without drug | 0.22 | -1.18 | 1.24 | 0.96 | inactive |
| Rhpn1 | no change with or without drug | 0.22 | 0.17 | 0.22 | 0.96 | inactive |
| Prlhr | no change with or without drug | 1.12 | -0.34 | 1.57 | 1.04 | inactive |
| Svs3a | no change with or without drug | 0.45 | -0.51 | 1.01 | 0.98 | inactive |
| Eva1a | no change with or without drug | 0.45 | -0.51 | 1.01 | 0.98 | inactive |
| Evc | no change with or without drug | 0.34 | 1.18 | -0.34 | 0.97 | inactive |
| Zfp786 | no change with or without drug | -0.34 | -0.51 | 0.11 | 0.91 | inactive |
| Gstm4 | no change with or without drug | -0.9 | -1.18 | 0 | 0.86 | inactive |
| Rnd1 | no change with or without drug | 0.45 | 0.17 | 0.45 | 0.98 | inactive |
| Add2 | no change with or without drug | 0.45 | 1.18 | -0.22 | 0.98 | inactive |
| Wdr18 | no change with or without drug | -0.45 | 0.34 | -0.56 | 0.9 | inactive |
| Asz1 | no change with or without drug | 0.67 | -0.51 | 1.24 | 1 | inactive |
| Kcnmb2 | no change with or without drug | -1.35 | -0.17 | -1.24 | 0.82 | inactive |
| Galnt4 | no change with or without drug | -0.9 | 0.17 | -0.9 | 0.86 | inactive |
| Agl | no change with or without drug | 0.45 | 0.17 | 0.45 | 0.98 | inactive |
| Ppa2 | no change with or without drug | 1.12 | -0.17 | 1.46 | 1.04 | inactive |
| Or52z14 | no change with or without drug | -0.9 | -0.17 | -0.79 | 0.86 | inactive |
| 4930591A17Rik | no change with or without drug | 0.22 | -1.35 | 1.35 | 0.96 | inactive |
| Gpr153 | no change with or without drug | -0.56 | -0.34 | -0.22 | 0.89 | inactive |
| Wwp2 | no change with or without drug | -0.45 | -0.84 | 0.22 | 0.9 | inactive |
| Gatd1 | no change with or without drug | -1.01 | -1.52 | 0.11 | 0.85 | inactive |

Ordered by “doxorubicin viability vs non-targeting” (low to high): some entries from above.
| gene knocked down | combined z-score class | viability z-score with doxorubicin | viability z-score without drug | z-score of drug to no-drug ratio | doxorubicin viability vs non-targeting | Outcome |
| --- | --- | --- | --- | --- | --- | --- |
| Galnt4 | no change with or without drug | -0.9 | 0.17 | -0.9 | 0.86 | inactive |
| Or52z14 | no change with or without drug | -0.9 | -0.17 | -0.79 | 0.86 | inactive |
| Gpr153 | no change with or without drug | -0.56 | -0.34 | -0.22 | 0.89 | inactive |
| Wwp2 | no change with or without drug | -0.45 | -0.84 | 0.22 | 0.9 | inactive |
| 4930591A17Rik | no change with or without drug | 0.22 | -1.35 | 1.35 | 0.96 | inactive |
| Agl | no change with or without drug | 0.45 | 0.17 | 0.45 | 0.98 | inactive |
| Ppa2 | no change with or without drug | 1.12 | -0.17 | 1.46 | 1.04 | inactive |
